According to PMC7546217:
These are yes or no findings as the source states them, for the method shown. In cells and extracts the contact can be indirect. Some binding calls cover weakened binding; strength is not graded here.

Chains of the proteins cited; added tags and fusions are not shown.
UniProt P21333: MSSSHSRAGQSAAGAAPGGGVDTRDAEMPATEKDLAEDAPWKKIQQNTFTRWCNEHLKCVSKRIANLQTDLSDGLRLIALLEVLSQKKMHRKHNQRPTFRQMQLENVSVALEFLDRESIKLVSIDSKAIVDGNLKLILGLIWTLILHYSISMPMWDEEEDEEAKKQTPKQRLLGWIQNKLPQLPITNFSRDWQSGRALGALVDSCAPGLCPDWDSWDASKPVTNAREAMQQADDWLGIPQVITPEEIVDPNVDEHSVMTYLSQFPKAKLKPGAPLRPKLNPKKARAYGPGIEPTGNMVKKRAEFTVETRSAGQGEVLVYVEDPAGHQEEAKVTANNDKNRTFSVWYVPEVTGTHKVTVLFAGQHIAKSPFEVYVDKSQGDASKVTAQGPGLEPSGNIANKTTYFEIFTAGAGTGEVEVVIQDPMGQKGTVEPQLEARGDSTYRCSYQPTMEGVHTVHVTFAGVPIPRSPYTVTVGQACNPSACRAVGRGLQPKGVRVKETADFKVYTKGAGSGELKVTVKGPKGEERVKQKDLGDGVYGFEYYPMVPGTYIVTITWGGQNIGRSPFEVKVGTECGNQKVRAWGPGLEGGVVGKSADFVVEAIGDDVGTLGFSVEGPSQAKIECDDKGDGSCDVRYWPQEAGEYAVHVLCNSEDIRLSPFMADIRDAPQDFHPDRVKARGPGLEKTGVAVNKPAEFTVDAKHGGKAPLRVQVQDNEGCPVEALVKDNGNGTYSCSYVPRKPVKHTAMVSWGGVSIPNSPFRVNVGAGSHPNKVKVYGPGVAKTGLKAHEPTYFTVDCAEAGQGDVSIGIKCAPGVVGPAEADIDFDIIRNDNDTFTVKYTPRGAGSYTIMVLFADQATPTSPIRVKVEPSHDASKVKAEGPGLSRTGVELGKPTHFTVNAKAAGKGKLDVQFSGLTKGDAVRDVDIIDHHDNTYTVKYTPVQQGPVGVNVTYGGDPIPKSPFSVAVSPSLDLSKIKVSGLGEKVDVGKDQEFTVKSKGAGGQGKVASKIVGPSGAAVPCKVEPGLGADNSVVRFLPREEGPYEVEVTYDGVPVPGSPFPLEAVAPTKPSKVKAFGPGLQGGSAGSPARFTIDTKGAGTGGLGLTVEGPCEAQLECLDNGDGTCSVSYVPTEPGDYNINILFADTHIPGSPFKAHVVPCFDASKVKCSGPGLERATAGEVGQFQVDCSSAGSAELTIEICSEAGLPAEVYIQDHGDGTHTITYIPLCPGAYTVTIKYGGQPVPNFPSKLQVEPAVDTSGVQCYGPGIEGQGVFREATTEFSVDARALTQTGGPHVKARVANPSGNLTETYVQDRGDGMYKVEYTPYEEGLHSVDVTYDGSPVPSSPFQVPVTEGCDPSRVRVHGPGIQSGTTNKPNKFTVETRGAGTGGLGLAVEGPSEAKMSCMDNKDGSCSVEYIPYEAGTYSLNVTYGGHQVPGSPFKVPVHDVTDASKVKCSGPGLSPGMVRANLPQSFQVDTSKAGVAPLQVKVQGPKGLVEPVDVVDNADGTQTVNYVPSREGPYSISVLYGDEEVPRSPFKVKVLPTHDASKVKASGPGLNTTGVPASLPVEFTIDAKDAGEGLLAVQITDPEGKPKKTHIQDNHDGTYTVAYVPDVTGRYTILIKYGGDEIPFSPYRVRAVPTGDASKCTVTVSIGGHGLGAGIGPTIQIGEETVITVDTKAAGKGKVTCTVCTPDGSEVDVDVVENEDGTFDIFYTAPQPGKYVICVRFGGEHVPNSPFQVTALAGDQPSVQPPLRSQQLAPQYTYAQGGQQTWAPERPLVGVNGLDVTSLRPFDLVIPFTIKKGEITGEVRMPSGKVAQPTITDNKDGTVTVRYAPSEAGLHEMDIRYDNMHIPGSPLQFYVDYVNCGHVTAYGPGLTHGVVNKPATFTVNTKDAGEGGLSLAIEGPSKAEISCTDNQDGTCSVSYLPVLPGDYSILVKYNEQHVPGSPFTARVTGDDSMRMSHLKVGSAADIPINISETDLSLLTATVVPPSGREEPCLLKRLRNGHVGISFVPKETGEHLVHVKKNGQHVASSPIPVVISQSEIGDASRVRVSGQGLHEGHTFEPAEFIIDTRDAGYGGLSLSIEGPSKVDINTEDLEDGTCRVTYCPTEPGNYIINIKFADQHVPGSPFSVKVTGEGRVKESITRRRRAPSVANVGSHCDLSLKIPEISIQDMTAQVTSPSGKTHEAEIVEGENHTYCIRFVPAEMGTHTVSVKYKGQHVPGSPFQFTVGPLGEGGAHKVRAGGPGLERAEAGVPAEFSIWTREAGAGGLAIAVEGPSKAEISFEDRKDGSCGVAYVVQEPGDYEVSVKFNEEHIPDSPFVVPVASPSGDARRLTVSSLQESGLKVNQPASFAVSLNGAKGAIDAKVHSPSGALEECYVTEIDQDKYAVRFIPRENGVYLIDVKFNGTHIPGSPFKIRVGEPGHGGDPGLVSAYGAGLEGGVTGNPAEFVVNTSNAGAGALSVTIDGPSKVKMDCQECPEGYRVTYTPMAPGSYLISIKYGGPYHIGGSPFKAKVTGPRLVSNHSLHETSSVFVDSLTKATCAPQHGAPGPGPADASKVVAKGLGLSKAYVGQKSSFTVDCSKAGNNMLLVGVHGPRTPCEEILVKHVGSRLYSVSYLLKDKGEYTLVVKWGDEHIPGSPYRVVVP
UniProt P03466: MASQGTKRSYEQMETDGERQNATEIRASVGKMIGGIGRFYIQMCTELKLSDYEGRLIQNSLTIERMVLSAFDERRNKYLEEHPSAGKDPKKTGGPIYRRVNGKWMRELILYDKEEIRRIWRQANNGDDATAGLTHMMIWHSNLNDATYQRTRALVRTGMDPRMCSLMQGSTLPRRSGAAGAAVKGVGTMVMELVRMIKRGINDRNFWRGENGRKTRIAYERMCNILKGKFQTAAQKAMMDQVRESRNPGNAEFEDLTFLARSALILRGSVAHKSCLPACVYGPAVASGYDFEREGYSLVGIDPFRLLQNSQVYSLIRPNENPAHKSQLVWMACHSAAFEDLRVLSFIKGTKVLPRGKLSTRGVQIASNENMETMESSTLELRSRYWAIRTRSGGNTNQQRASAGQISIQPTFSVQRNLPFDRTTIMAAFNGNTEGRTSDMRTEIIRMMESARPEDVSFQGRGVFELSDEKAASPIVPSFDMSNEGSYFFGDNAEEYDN

Molecular target: Filamin A (FLNA), endogenous in HEK293 cells (human (endogenous in HEK293)) (UniProt P21333)
Test: co-IP

Influenza A virus nucleoprotein (NP) of A/Puerto Rico/8/34 (H1N1), expressed from the pcDNA3.1 myc-vector (from UniProt P03466 1-498)
binding: binds
